The values below come from paper PMC6126924, “Arabidopsis formin 2 regulates cell-to-cell trafficking by capping and stabilizing actin filaments at plasmodesmata” (eLife, 2018).

Results are given in words; binding and its absence hold for the method and conditions named. Sequences can lack the tags named with a protein.

The target of the assay is 6His-AtFH2-FH2M (Arabidopsis thaliana) (UniProt O22824). The assay can be described thus: SEC; Superdex 200 Increase 10/300; 100 mM Tris-HCl pH 8.5, 150 mM NaCl, 1 mM DTT, 5% glycerol; 0.4 mL/min; His-tag fusion proteins; both purified. A general note: SEC sorts molecules by how far they enter the pores of the column.

B1: 6His-AtFH2-FH2M (domain or fragment, UniProt O22824 438-864)
chain: EKKVETMKPKLKTLHWDKVRASSSRVMVWDQIKSNSFQVNEEMIETLFKVNDPTSRTRDGVVQSVSQENRFLDPRKSHNIAALLRALNVTADEVCEALIEGNSDTLGPELLECLLKMAPTKEEEDKLKELKDDDDGSPSKIGPAEKFLKALLNIPFAFKRIDAMLYIVKFESEIEYLNRSFDTLEAATGELKNTRMFLKLLEAVLKTGNRMNIGTNRGDAHAFKLDTLLKLVDIDGADGKTTLLHFVVQEIIKFEGARVPFTPSQSHIGDNMAEQSAFQDDLELKKLGLQVVSGLSSQLINVKKAAAMDSNSLINETAEIARGIAKVKEVITELKQETGVERFLESMNSFLNKGEKEITELQSHGDNVMKMVKEVTEYFHGNSETHPFRIFAVVRDFLTILDQVCKEVGRVNERTVYGSMPLHSPSN
B1: the binding result is reported as “no binding”.
